The values that follow come from patent US9340579B2 (NIPPI, INCORPORATED, priority 2011, dated 2016).

This series is described as follows: general procedure: Fmoc solid-phase peptide synthesis; Fmoc-Pro-Wang resin; DIC/HOBt. As to conditions: whole synthesis.
Where [1] appears, read: scale of the general procedure 0.5 g resin.

Gly-Pro-Ala-Gly-Pro had a crude mass of 38.5 mg and an isolated mass of 30.7 mg. Under setting [1], this substance came in with a crude yield of 29.8% and an isolated yield of 23.8%.
